## Results of single-concentration screens

By UniProt entry, the sequences of proteins in these tests, tags left out.
UniProt P9WPC5, whole entry: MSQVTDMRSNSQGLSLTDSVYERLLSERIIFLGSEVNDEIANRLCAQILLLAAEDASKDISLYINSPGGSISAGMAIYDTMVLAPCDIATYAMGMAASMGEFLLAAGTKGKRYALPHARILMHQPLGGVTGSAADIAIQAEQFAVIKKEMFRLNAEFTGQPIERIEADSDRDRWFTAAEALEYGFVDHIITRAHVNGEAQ
UniProt P9WPC3, whole entry partner: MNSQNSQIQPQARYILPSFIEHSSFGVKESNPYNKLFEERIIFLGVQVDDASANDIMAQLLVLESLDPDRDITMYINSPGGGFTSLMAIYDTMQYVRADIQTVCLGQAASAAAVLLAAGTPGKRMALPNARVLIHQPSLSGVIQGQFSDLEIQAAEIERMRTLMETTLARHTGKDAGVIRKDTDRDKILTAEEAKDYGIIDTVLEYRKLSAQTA
UniProt I6X8D2, whole entry: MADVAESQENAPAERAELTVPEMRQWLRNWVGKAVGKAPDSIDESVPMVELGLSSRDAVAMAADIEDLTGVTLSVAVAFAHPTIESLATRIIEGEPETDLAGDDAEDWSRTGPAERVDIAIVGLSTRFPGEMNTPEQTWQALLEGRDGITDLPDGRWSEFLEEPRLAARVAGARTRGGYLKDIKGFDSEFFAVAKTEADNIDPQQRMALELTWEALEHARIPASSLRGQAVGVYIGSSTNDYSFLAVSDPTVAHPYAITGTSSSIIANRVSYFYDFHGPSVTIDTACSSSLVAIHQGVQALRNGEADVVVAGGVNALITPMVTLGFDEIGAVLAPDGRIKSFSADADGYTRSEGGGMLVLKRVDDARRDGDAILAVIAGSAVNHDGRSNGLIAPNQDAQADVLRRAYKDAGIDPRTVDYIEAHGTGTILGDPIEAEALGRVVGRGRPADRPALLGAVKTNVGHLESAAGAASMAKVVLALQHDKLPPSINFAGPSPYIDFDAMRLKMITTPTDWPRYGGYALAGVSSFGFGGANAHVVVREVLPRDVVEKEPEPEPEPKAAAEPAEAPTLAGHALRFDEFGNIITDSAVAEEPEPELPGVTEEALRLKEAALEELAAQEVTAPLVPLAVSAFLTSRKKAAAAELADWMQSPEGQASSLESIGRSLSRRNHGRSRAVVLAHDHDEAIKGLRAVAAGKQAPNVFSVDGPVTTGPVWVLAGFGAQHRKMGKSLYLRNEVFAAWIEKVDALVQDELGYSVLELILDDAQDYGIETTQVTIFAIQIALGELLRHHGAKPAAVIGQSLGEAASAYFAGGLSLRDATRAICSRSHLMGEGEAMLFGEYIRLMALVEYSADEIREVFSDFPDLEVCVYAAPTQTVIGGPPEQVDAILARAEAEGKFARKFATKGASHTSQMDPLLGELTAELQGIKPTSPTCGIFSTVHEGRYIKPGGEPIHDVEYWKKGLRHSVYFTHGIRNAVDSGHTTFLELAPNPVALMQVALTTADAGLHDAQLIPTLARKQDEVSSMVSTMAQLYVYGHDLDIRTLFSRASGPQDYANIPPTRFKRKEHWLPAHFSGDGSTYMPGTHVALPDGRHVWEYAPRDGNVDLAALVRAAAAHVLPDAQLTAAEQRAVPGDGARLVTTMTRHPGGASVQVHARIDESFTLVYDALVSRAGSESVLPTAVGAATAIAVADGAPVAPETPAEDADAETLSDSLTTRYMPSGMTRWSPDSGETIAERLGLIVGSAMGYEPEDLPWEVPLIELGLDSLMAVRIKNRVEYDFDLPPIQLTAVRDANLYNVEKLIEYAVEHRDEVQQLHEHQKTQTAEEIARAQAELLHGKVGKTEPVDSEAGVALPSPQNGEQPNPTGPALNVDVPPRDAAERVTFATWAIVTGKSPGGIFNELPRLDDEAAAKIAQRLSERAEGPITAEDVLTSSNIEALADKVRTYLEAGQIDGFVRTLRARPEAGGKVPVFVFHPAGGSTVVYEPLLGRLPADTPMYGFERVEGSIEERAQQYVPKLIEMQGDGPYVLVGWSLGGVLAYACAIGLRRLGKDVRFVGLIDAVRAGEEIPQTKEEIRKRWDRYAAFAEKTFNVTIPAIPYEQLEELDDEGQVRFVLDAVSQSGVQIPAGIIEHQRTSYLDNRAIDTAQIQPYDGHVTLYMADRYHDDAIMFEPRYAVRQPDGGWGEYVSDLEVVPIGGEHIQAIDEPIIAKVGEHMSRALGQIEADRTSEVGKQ

A: 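Protease assay of ClpP1P2, read by the AMC dye that it sets free. Target: ClpP1P2, Mycobacterium tuberculosis (UniProt P9WPC5 and UniProt P9WPC3). Concentration: 50 µM. Higher reads as stronger inhibition, judged from the few compounds that gave an IC50. Most other retested compounds had strongly negative values. Of about 69,000 compounds tested this way, about 10 (0.015%) reached 50% or more in at least one test.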
B: 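Enzyme assay of the thioesterase domain of polyketide synthase 13; the read-out is not stated. Target: Polyketide synthase Pks13, Mycobacterium tuberculosis (UniProt I6X8D2). Concentration: 30 µM. The record gives no direction; the compounds picked for IC50 retests had high values, so higher reads as stronger inhibition. Of about 67,000 compounds tested this way, about 300 (0.46%) reached 50% or more in at least one test.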

Results are given as percent effect. The controls that fix the scale are not given in the record; negative values are as filed. The compounds are a random part of those screened.

{"compound": "CCN(CC)S(=O)(=O)N1CCCC1c1nnc2n1CCN(C)CC2", "stereo": "centres unmarked", "A": -24.48, "B": 1.424}
{"compound": "CCC(CO)N(Cc1ccccn1)C(=O)c1ccc2c(c1)CCO2", "stereo": "centres unmarked", "A": -16.59, "B": -29.47}
{"compound": "c1cc(CO[C@@H]2CC[C@H]3[C@H]2OCCN3CC2CCOCC2)ccn1", "A": 12.07, "B": -13.6}
{"compound": "CCOc1ccc(Cl)c(C(=O)N2CCCC(N3CCCC3)C2)n1", "stereo": "centres unmarked", "A": -9.327, "B": -17.69}
{"compound": "CS(=O)(=O)NCc1cn2c(n1)CN(Cc1ccoc1)CC2", "A": 12.62, "B": -14.12}
{"compound": "CNC(=O)CCc1cc(C2CCCCN2C(C)C)nc(C)n1", "stereo": "centres unmarked", "A": -28.6}
{"compound": "Cc1ccccc1-c1cc(NC(=O)NC2CCC(O)CC2)n(CCO)n1", "stereo": "centres unmarked", "A": -1.931, "B": -4.993}
{"compound": "Cc1n[nH]c(C)c1C1CCCN1C(=O)NCCSC(C)(C)C", "stereo": "centres unmarked", "A": 0.4665, "B": -14.48}
{"compound": "COc1cnc(N2C[C@@H](CN3CCOCC3)C[C@H](CO)C2)nc1", "A": -9.912, "B": 3.228}
{"compound": "COc1ccc(Cl)cc1CC(=O)N1CCN(CC(C)(C)O)CC1", "A": -20.13, "B": -8.681}
{"compound": "CCC1(CC)C(=O)NC(=O)N/C1=N/c1cccc(OC)c1", "A": 12.35, "B": -19.31}
{"compound": "Cc1cn2nc(Sc3nnc(C(C)C)n3C)sc2n1", "A": -2.501, "B": -32.57}
{"compound": "Cn1ccc2cc(CC3COCCN(C(=O)c4ccccn4)C3)ccc21", "stereo": "centres unmarked", "A": -11.21, "B": 6.435}
{"compound": "CC(=O)c1c(C)nn(CC(=O)N2Cc3cnc(C(C)(C)C)nc3C2)c1C", "A": -9.504, "B": -35.17}
{"compound": "COC(=O)N1CCC(NC(=O)N2CCCC2c2ccsc2)CC1", "stereo": "centres unmarked", "A": -3.157, "B": -36.16}
{"compound": "O=S(=O)(C1CC1)N1CCOCC2(CN(c3ncccn3)CCO2)C1", "stereo": "centres unmarked", "A": 8.901, "B": -30.08}
{"compound": "CC(NCC(F)(F)F)c1ccc(S(C)(=O)=O)c(F)c1", "stereo": "centres unmarked", "A": 15.17, "B": -0.8669}
{"compound": "O=c1n(CCNCc2ccc3ccccc3c2)nc2ccccn12", "A": -10.91, "B": 3.17}
{"compound": "COC(CNC(=O)C1CCCC1)c1ccc(C)s1", "stereo": "centres unmarked", "A": -3.339, "B": -28.98}
{"compound": "Nc1nc(N)c2c(n1)OC1(CCN(C(=O)CC3CCNCC3)CC1)C2", "A": -7.258, "B": -3.102}
{"compound": "N[C@H]1CC[C@@H](n2cc(C(=O)N[C@H]3CCCc4ccccc43)nn2)CC1", "A": -13, "B": 1.746}
{"compound": "O=C(CC1=CSC2=NCCCN12)N1CCCCCC1c1ccco1", "stereo": "centres unmarked", "A": 16.2, "B": -27.48}
{"compound": "CN1C(=O)CCC12CCCN(C(=O)c1ccoc1)C2", "stereo": "centres unmarked", "A": 1.38, "B": -30.9}
{"compound": "Cc1cc(C(=O)N2C[C@@H](CN3CCCCC3)[C@@H](CO)C2)ccc1O", "A": -0.506, "B": -28.81}
{"compound": "COC(=O)c1cccn1C1CCN(C(=O)c2ccc(C)[nH]c2=O)CC1", "A": -6.903, "B": -12.62}

The first 2 entries again:

| compound | A | B |
|---|---|---|
| `CCN(CC)S(=O)(=O)N1CCCC1c1nnc2n1CCN(C)CC2` (centres unmarked) | -24.48% | 1.424% |
| `CCC(CO)N(Cc1ccccn1)C(=O)c1ccc2c(c1)CCO2` (centres unmarked) | -16.59% | -29.47% |

The values are deposited in ChEMBL (CHEMBL3988442, “University of Dundee, Small-Polar-MMV Screening Library” (2021)).